Results on one molecule are retold here after patent US20240358834A1 (University of Pennsylvania, published 2024).

Amino acid sequences for entries named in this document (tags omitted). Residues count along the entry.
UniProt P15391, residues 20-291: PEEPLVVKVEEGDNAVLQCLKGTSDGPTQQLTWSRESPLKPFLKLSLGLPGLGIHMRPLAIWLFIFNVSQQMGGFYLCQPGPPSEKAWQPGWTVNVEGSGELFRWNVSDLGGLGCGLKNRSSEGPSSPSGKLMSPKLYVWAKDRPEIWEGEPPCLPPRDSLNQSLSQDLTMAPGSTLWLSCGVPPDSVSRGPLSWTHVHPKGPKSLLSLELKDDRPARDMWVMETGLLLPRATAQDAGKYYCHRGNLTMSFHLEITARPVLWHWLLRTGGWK

The test concerns the target human CD19 protein with a biotinylated AviTag (Acrobiosystems) (human) (UniProt P15391). Kind of test: phage ELISA of individual clones on CD19. Background: An ELISA detects its analyte on a solid surface through an enzyme-linked reagent.

Results are given in words; binding and its absence hold for the method and conditions named. Some binding calls cover weakened binding; strength is not graded here.

B1: scFv 40 (scFv)
scFv: QSVLTQPPSVSGSLGQKVTISCTGSSSSVGTHYVGWYQIPPGIGPRTVIYNNDYRPSGVPDRFSGSKSGNSATLTISGLQAEDEADYYCSSWDDSLGAYVLGSGTQLTILGGGSSRSSSSGGGGSGGGGELTLQESGPGLVKPSQTLSLTCAVSGGSVIRGYYWTWIRQRPGRGLEWMGYWAGSTDYNPAFQGRIFITAGTAKNQFSLEMTSMTTDDTAIYYCVGSLRGGWLFDNWGQGTLVTVSSASTTAPSVTSGQAGQHHHHHHGAYPYDVPDYAS
notes: Canine scFv (VL-linker-VH); also called P3-59B
With B1, the binding result was “binds”.
